This assay deals with T1, ATAD3A, transfected in HEK293T cells (UniProt Q9NVI7).
T1 sequence: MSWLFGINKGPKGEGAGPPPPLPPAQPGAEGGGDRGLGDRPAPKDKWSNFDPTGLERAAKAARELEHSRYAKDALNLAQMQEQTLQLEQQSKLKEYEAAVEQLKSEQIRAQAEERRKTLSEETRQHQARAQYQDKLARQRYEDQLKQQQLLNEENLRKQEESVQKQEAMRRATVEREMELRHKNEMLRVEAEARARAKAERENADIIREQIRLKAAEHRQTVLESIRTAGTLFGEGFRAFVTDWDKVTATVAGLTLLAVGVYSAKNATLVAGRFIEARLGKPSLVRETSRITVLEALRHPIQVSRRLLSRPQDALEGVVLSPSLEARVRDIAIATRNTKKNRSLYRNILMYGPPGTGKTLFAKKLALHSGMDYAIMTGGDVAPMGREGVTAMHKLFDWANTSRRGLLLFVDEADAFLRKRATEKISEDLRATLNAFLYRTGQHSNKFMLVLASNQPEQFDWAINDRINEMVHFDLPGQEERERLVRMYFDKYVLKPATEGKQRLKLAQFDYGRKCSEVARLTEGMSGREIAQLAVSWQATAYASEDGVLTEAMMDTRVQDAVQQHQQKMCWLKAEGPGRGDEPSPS
The assay can be described thus: co-IP; HEK293T cells cotransfected with ATAD3A and pEGFP-MUC1-CD or pEGFP-MUC1-CD-AQA; lysates subjected to denatured co-IP.

By UniProt entry, the sequences of proteins in these tests, tags left out. Residues count along the entry.
UniProt P15941, residues 1182-1255: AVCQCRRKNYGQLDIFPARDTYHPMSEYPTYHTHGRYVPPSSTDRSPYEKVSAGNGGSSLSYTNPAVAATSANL

In paper PMC9606306 one finds binding data, which are given here for one substance.

Results are given in words; binding and its absence hold for the method and conditions named. In cells and extracts the contact can be indirect. Some entries that bind do so weakly or less than the wild type.

As for “GFP-MUC1-CD (from UniProt P15941 1182-1255) (domain or fragment)”, the binding entry is “binds”.
